Data reported in patent publication US6544967B2, “Method for inhibiting bone resorption” (Merck & Co., Inc., priority 1997, dated 2003).

Tested on: canine esophagus tissue
Experiment: Esophageal irritation potential, dog model (esophageal infusion in simulated gastric juice, histopathology)
Type: in vivo
Description: The esophageal irritation potential of the bisphosphonates is evaluated using a dog model.
The following solutions are prepared:
(1) simulated gastric juice (pH about 2), i.e. the control solution.
(5) simulated gastric juice (pH about 2) containing about 0.20 mg/mL of risedronate sodium on a risedronic acid active basis.
(6) simulated gastric juice (pH about 2) containing about 4.0 mg/mL of tiludronate disodium on a tiludronic acid active basis.
The simulated gastric juice is prepared by dissolving about 960 mg of pepsin (L-585,228000B003, Fisher Chemical) in about 147 mL of 0.90 (wt %) NaCl (aqueous), adding about 3 mL of 1.0 M HCl (aqueous), and adjusting the volume to about 300 mL with deionized water. The pH of the resulting solution is measured and if necessary is adjusted to about 2 using 1.0 M HCl (aqueous) or 1.0 M NaOH (aqueous).
The animals used in the experiments are anesthetized and administered about 50 mL of the appropriate solution over about 30 minutes by infusion into the esophagus using an infusion pump and a rubber catheter. The following treatment experiments are run:
Group 1: This control group contains four animals. Each animal is administered a dosage of about 50 mL of simulated gastric juice [solution (1)] on each of five consecutive days. The animals are sacrificed immediately after the last dose is administered.
Group 2: This group contains four animals. […]

NCCCC(O)(P(=O)(O)O)P(=O)(O)O [Alendronate, 4-amino-1-hydroxybutylidene-1,1-bisphosphonic acid monosodium trihydrate]
Esophageal irritation versus low concentration dosages on consecutive days (Group 2) (single high concentration dosage (Groups 3 and 4), comparable to control Group 1): considerably less esophageal irritation | Esophageal irritation versus low concentration dosages on consecutive days (Group 2) (single high concentration on a weekly basis (Group 5)): consideraly less esophageal irritation
